Measurements: paper PMC9698725
These are yes or no findings as the source states them, for the method shown. Binding seen in cells or lysates may run through a third protein. Some binding calls cover weakened binding; strength is not graded here.

The chains behind the UniProt entries cited, without tags or fusion partners.
UniProt P35637: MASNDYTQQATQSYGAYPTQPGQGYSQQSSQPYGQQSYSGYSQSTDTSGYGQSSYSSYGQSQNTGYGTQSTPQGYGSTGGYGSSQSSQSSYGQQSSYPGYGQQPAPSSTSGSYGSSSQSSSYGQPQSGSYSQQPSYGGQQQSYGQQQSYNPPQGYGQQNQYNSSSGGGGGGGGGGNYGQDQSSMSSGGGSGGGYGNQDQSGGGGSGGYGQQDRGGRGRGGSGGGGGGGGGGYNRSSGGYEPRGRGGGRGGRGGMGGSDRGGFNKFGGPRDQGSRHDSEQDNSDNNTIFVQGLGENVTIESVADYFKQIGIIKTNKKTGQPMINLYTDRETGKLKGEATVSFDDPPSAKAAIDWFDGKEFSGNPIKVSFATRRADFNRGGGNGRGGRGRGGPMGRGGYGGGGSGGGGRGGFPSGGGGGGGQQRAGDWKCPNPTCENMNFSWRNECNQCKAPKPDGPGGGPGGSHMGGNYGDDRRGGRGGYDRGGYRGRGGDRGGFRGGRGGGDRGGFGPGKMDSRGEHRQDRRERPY

Assays:
[1] = biological target: heterogeneous nuclear ribonucleoprotein K (HNRNPK) (human (endogenous in hiPSC-derived motor neurons)) (UniProt P61978); assay: co-IP; total cell lysates of wild-type iPSC-derived motor neurons, with or without RNase A treatment; anti-FUS or anti-HNRNPK antibody 30 min at 4°C, Protein-G Dynabeads 1.5 h at 4°C, three washes with Brain immunoprecipitation buffer; bound proteins detected by Western blotting
[2] = biological target: Fused in sarcoma (FUS) (human (endogenous in hiPSC-derived motor neurons)) (UniProt P35637); assay: as above

Row | binding [1] | binding [2] | Substance
1 | binds weakly | – | Fused in sarcoma (FUS) (from UniProt P35637 1-526)
2 | – | binds | heterogeneous nuclear ribonucleoprotein K (HNRNPK) (from UniProt P61978 1-463)
